Assay results reported in doi:10.1101/2022.03.23.485444.
These are yes or no findings as the source states them, for the method shown. Some results given as binding are weak or reduced against the parent protein; the word gives no strength. Tags and fused reporters may be left off the sequences shown.

T1: ZYP1B^601-856-BD (Arabidopsis thaliana) (UniProt P61430)
T1 sequence: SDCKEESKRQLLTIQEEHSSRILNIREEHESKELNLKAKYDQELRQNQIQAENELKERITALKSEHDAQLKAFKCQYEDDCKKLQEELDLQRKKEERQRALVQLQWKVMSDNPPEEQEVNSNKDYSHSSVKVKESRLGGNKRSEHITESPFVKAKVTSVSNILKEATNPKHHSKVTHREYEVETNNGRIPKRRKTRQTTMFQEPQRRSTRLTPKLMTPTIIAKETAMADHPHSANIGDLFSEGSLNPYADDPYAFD

T2: ZYP1B^601-725-BD (Arabidopsis thaliana) (UniProt P61430)
T2 sequence: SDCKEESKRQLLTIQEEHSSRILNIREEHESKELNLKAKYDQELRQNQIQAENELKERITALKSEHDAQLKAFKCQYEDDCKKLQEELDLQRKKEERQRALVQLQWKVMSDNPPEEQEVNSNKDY

T3: ZYP1B-BD (full length ZYP1B) (Arabidopsis thaliana) (UniProt P61430)
T3 sequence: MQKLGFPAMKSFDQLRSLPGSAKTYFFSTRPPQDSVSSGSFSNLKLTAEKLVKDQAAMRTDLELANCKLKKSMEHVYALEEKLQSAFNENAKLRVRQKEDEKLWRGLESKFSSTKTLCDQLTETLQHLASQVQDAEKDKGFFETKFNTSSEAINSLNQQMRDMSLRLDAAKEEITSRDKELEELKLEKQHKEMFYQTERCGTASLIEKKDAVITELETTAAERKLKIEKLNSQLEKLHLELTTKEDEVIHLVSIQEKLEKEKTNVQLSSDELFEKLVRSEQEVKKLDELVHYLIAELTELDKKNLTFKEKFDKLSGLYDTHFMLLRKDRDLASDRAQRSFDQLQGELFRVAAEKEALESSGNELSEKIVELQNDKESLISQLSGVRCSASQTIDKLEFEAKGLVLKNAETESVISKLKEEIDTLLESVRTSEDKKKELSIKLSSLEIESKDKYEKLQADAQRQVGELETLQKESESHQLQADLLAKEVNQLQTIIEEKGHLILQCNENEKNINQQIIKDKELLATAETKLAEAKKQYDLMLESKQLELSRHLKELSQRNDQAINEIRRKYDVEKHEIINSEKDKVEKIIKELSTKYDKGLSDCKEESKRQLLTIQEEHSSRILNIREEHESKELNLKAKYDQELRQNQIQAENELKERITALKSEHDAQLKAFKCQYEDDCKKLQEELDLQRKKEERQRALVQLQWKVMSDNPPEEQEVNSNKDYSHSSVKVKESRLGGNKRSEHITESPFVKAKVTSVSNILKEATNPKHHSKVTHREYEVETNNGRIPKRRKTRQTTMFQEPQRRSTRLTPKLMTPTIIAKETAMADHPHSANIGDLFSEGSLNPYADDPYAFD

T4: ZYP1B^726-834-BD (Arabidopsis thaliana) (UniProt P61430)
T4 sequence: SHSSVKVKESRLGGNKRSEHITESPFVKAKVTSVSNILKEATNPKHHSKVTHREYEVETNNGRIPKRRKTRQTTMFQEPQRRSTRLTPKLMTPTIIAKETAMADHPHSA

T5: ZYP1B^661-725-BD (Arabidopsis thaliana) (UniProt P61430)
T5 sequence: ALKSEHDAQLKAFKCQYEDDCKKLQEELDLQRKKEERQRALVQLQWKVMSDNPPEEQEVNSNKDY

T6: ZYP1B-BD (full length ZYP1B) (Arabidopsis thaliana), P61430
T6 chain: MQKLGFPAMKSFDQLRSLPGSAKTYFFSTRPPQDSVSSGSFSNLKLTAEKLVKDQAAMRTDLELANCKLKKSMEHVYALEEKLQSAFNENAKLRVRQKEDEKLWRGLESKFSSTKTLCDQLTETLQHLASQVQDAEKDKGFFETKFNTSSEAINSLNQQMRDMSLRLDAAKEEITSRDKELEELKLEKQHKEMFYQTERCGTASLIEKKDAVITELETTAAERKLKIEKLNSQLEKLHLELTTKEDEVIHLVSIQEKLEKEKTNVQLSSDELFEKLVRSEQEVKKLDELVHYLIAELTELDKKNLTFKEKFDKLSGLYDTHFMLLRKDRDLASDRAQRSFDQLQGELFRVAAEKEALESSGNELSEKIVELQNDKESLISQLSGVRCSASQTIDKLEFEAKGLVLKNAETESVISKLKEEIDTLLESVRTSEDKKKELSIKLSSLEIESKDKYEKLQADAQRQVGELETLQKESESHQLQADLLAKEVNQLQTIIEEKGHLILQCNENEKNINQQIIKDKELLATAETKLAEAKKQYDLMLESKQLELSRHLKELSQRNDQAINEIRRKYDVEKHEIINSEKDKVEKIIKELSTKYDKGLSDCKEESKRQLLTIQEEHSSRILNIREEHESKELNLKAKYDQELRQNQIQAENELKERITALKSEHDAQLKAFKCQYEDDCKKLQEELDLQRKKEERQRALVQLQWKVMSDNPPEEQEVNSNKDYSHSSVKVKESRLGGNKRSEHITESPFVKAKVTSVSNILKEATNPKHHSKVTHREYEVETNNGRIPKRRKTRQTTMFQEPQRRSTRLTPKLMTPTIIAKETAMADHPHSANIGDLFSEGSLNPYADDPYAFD


Columns and labels:
Assay in all cases: two-hybrid
[1] = molecular target: T1, ZYP1B^601-856-BD (Arabidopsis thaliana)
[2] = molecular target: T2, ZYP1B^601-725-BD (Arabidopsis thaliana)
[3] = molecular target: T3, ZYP1B-BD (full length ZYP1B) (Arabidopsis thaliana)
[4] = molecular target: T4, ZYP1B^726-834-BD (Arabidopsis thaliana)
[5] = molecular target: T5, ZYP1B^661-725-BD (Arabidopsis thaliana)
[6] = molecular target: T6, ZYP1B-BD (full length ZYP1B) …; settings: remark: other sources report otherwise

Row | Binder | binding [1] | binding [2] | binding [3] | binding [4] | binding [5] | binding [6]
1 | PCH2^1-130, AD fusion (domain or fragment, UniProt Q8H1F9 1-130) MVEDPIPLPNASMEVSYQNPIEAATIPVQIAVAEPVATPNPPPCLHENKFLVSVEVCLKPSSTARLEDVQRAVERMLENRSMSYADGLVLIPADDLFLVDNVQRICICDTEEWVKNNDVLLFWQVKPVVH | binds | binds | no binding | no binding | binds | 
2 | PCH2 (full length), AD fusion, Q8H1F9 1-467 (protein) MVEDPIPLPNASMEVSYQNPIEAATIPVQIAVAEPVATPNPPPCLHENKFLVSVEVCLKPSSTARLEDVQRAVERMLENRSMSYADGLVLIPADDLFLVDNVQRICICDTEEWVKNNDVLLFWQVKPVVHTFQLIEEGPCEDLCADGQPASFNEWILPAKEFDGLWESLIYESGLKQRLLRYAASALLFTQKGVNPNLVSWNRIILLHGPPGTGKTSLCKALAQKLSIRCNSRYPHCQLIEVNAHSLFSKWFSESGKLVAKLFQKIQEMVEEDGNLVFVLIDEVESLAAARKAALSGSEPSDSIRVVNALLTQMDKLKSAPNVIILTTSNITTAIDVAFVDRADIKAYVGPPTLHVRYEILRSCVEELISKGIISSFQGCDGLSIPSFSSLKEKLSESEVHDTNTVPWFCKQLIEAAKGCEGLSGRSLRKLPFLAHAALADPYSHDPSNFLCTMIETAKREKSEQPE |  |  |  |  |  | no binding
3 | PCH2^131-467, AD fusion (domain or fragment, UniProt Q8H1F9 131-467) TFQLIEEGPCEDLCADGQPASFNEWILPAKEFDGLWESLIYESGLKQRLLRYAASALLFTQKGVNPNLVSWNRIILLHGPPGTGKTSLCKALAQKLSIRCNSRYPHCQLIEVNAHSLFSKWFSESGKLVAKLFQKIQEMVEEDGNLVFVLIDEVESLAAARKAALSGSEPSDSIRVVNALLTQMDKLKSAPNVIILTTSNITTAIDVAFVDRADIKAYVGPPTLHVRYEILRSCVEELISKGIISSFQGCDGLSIPSFSSLKEKLSESEVHDTNTVPWFCKQLIEAAKGCEGLSGRSLRKLPFLAHAALADPYSHDPSNFLCTMIETAKREKSEQPE |  |  | no binding |  |  | 
